Test results reported in US20240287202A1 (XYPHOS BIOSCIENCES, published 2024).
These are yes or no findings as the source states them, for the method shown. Binding calls can cover weak binding; strength is not graded here.

Protein sequences, listed by entry. Tags and fused reporters are not part of them. Lines headed by an entry give the natural chain unless they say otherwise; changes in a name come on top. Chains listed by the source or under a name are the forms on record and can include a tag or linker.
Fc-wtNKG2D (wild-type NKG2D ectodomain fused to the C-terminus of human IgG1 Fc) (P26718, form named): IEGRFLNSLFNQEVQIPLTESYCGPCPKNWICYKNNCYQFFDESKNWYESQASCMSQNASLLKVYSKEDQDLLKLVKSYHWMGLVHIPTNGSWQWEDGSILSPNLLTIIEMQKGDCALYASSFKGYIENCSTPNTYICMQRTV
UniProt Q6H3X3: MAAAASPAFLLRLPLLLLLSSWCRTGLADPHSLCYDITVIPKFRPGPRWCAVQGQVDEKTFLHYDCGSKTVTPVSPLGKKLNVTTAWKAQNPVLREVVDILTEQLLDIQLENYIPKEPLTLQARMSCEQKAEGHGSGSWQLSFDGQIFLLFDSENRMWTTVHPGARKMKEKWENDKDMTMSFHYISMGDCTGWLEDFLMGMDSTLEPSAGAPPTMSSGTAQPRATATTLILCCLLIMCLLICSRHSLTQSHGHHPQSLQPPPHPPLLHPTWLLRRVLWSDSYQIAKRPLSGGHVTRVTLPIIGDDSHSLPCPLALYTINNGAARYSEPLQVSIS

Target: Fc-wtNKG2D (wild-type NKG2D ectodomain fused to the C-terminus of human IgG1 Fc) (human) (UniProt P26718)
Experiment: Octet BLI; Fc-wtNKG2D captured on anti-human IgG Fc (AHC) tips, dilution series of His-tagged monomeric ligand

## A1-A2 domain of human ULBP5 with C-terminal 6x-His tag (monomer) (from UniProt Q6H3X3) (ligand)
  binding: binds
